The results in this text go back to US20150017154A1.

Results are given in words; binding and its absence hold for the method and conditions named. Some results given as binding are weak or reduced against the parent protein; the word gives no strength.

In this assay the target is canine NGF (canine). Nature of the assay: ELISA, CHO supernatant on coated NGF, anti-canine IgG-HRP. On the technique in general: In an ELISA, binding on a coated surface is turned into a signal by an enzyme label.

B1: caninised anti-NGF antibody comprising the caN-HCB heavy chain and the caN-kLC light chain (antibody)
heavy: EVQLVESGGDLVNPGGTLTLSCVVSGFSLTNNNVNWVRQALGRGLEWVGGVWAGGATDYNSALKSRLTITRDTSKSTVFLKMHSLQSEDTATYYCARDGGYSSSTLYAMDAWGQGTLVTVSSASTTAPSVFPLAPSCGSTSGSTVALACLVSGYFPEPVTVSWNSGSLTSGVHTFPSVLQSSGLYSLSSMVTVPSSRWPSETFTCNVAHPASKTKVDKPVPKRENGRVPRPPDCPKCPAPEMLGGPSVFIFPPKPKDTLLIARTPEVTCVVVDLDPEDPEVQISWFVDGKQMQTAKTQPREEQFNGTYRVVSVLPIGHQDWLKGKQFTCKVNNKALPSPIERTISKARGQAHQPSVYVLPPSREELSKNTVSLTCLIKDFYPPDIDVEWQSNGQQEPESKYRTTPPQLDEDGSYFLYSKLSVDKSRWQRGDTFICAVMHEALHNHYTQESLSHSPGK
light: DIQMTQSPASLSLSQEEKVTITCRASEDIYNALAWYQQKPGQAPKLLIYNTDTLHTGVPSRFSGSGSGTEYSLTINSLESEDVAVYFCQHYFHYPRTFGAGTKVELKRNDAQPAVYLFQPSPDQLHTGSASVVCLLNSFYPKDINVKWKVDGVIQDTGIQESVTEQDKDSTYSLSSTLTMSSTEYLSHELYSCEITHKSLPSTLIKSFQRSECQRVD
For the molecule B1, the binding result was “binds”.
